The source of these data is patent US20020110853A1.

These are yes or no findings as the source states them, for the method shown. Binding seen in cells or lysates may run through a third protein. Some results given as binding are weak or reduced against the parent protein; the word gives no strength. Sequences can lack the tags named with a protein.

This test addresses T1, GST fusion of the C-terminal 29 amino acids of TWEAKR (TWEAKR cytoplasmic domain) (human).
T1 sequence: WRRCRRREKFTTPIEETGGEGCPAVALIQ
Put plainly: GST pull-down of 35S-labeled TRAF from reticulocyte lysate, SDS-PAGE, autoradiography.

B1: TRAF 1 (protein, UniProt Q13077 1-416, looked up)
chain: MASSSGSSPRPAPDENEFPFGCPPTVCQDPKEPRALCCAGCLSENPRNGEDQICPKCRGEDLQSISPGSRLRTQEKAHPEVAEAGIGCPFAGVGCSFKGSPQSVQEHEVTSQTSHLNLLLGFMKQWKARLGCGLESGPMALEQNLSDLQLQAAVEVAGDLEVDCYRAPCSESQEELALQHFMKEKLLAELEGKLRVFENIVAVLNKEVEASHLALATSIHQSQLDRERILSLEQRVVELQQTLAQKDQALGKLEQSLRLMEEASFDGTFLWKITNVTRRCHESACGRTVSLFSPAFYTAKYGYKLCLRLYLNGDGTGKRTHLSLFIVIMRGEYDALLPWPFRNKVTFMLLDQNNREHAIDAFRPDLSSASFQRPQSETNVASGCPLFFPLSKLQSPKHAYVKDDTMFLKCIVETST
modifications: 35S-methionine/cysteine labeled
B1: the binding result is “binds”.
